About 13,000 (3.2%) of roughly 400,000 compounds were called active. Inconclusive means that the source gave no clear call. Such entries were picked first, then a sample of the others. The call rests on the fitted dose curve; in most records, active means well fitted cell-killing curve with a large enough effect; inconclusive means small, poorly fitted or top-dose-only effect, or effect the other way; inactive means flat fitted curve, though single readings scatter. A potency beside an inconclusive call is a rough fit, not a confirmed value.
assay: qHTS assay for MDR1-selective chemotherapeutics: Primary screen using the drug-selected MDR subline cells KB-V1; details: KB-V1 MDR cells viability, CellTiter-Glo, 72 h; activity change, negative = cytotoxicity: at 46.1 µM (top of the series); further: nearly all actives have a fitted effect of over 60% in size
Source text: A prime difficulty in effectively treating cancer is the development of cellular resistance to multiple structurally unrelated anticancer drugs, a phenomenon known as multidrug resistance (MDR). […] Numerous strategies to overcome P-gp-mediated MDR have been explored, including the design of drugs that evade recognition and efflux, and development of inhibitors to block efflux and restore drug accumulation. […] An alternative approach is to exploit resistance by identifying drugs that target MDR cells over the non-resistant parental cells from which they were selected. […] The development of MDR1-selective agents represents a new strategy for resolving multidrug resistance, as it remains a long-standing clinical challenge for cancer chemotherapy.
Our goal is to identify compounds that selectively kill P-gp-expressing MDR cells. We will identify MDR1-selective compounds by comparing toxicity of compounds in the screening library against parental, drug-naive (KB-3-1) adenocarcinoma cells as well as their drug-selected MDR sub-line (KB-V1). The differential toxicity of compounds against these two cell lines will be used to identify MDR1-selective compounds, whose cytotoxicity is potentiated, rather than diminished, by P-gp expression. This assay will be utilized to conduct a quantitative high-throughput screen (qHTS) in collaboration with the NIH Chemical Genomics Center to identify selective agents, and probe hits arising from the screen will be validated using secondary assays and characterized through a well-established follow-up research program. This screen was run against the entire NCGC library collection of about 400,000 compounds.
NIH Molecular Libraries Probe Production Network [MLPCN]
NIH Chemical Genomics Center [NCGC]
PI: Michael Gottesman, National Cancer Institute, NIH
Briefly, 5 microL of media containing either KB-V1 cells (columns 1-2, 4-48) are dispensed into Greiner white, treated solid-bottom 1536-well assay plates (media-only control is added to column 3). Compounds are then transferred via Kalypsys pin tool equipped with 1536-pin array (10 nL slotted pins, V&P Scientific, San Diego, CA). Following addition of compound, the plates are incubated at 37 degrees C for 72 hours. CellTiter-Glo (2.5 µL/well) is then added, and the plates are read in a ViewLux reader (Perkin-Elmer, clear luminescence filter, 1 second exposure, 1x binning) following a 10 minute incubation. All cells are dispensed in DMEM phenol-red free media containing 10% FBS.
Library plates were screened starting from the lowest and proceeding to the highest concentration. Vehicle-only plates, with DMSO being pin-transferred to columns 5-48, will be inserted uniformly at the beginning and the end of each library in order to monitor and record any shifts in the background, which can be affected by reagent dispensers or loss in enzyme activity over time. Screening data will be corrected, normalized, and concentration-effect relationships will be derived by using publicly-available NCGC, NCATS curve fitting algorithms (http://ncgc.nih.gov/pub/openhts).
On the % scale 0 is the no-effect control and ±100 the full control effect; potency means the concentration at half of the fitted maximal effect.

Row | SMILES | Potency | activity change, negative = cytotoxicity
1 | Cc1cc(C(=O)NP(=O)(N2CCOCC2)N2CCOCC2)c(C)n1C1CC1 | inconclusive: 29.1 µM [rising, single point] | –
2 | CC(C)Nc1ccc(Nc2ccccc2)cc1 | – | inactive: -22%
3 | O=c1[nH]c(=S)[nH]c(O)c1C(c1ccccn1)c1c(O)[nH]c(=S)[nH]c1=O | inconclusive: 18.4 µM [rising, single point] | –
4 | CN1CCCN(C(=O)COc2cccc(C(F)(F)F)c2)CC1 | inconclusive: 4.11 µM [rising, partial curve] | –
5 | CCN(CC)c1ccc(CNCCc2ccc(F)cc2)cc1 | inconclusive: 25.9 µM [cytotoxic, partial curve, poor fit] | –
6 | Cc1cccc(CN2CCN(Cc3ccc(Cl)cc3)CC2)c1 | inconclusive: 29.1 µM [cytotoxic, single point] | –
7 | CC(C)C(=O)Nc1nnc(CCN(CCc2nnc(NC(=O)C(C)C)s2)[N+](=O)[O-])s1 | inconclusive: 29.1 µM [rising, single point] | –
8 | O=C(/C=C/c1ccccc1)c1c(O)n(CCc2ccccc2)c(=O)[nH]c1=O | active: 6.51 µM | –
9 | O=[N+]([O-])c1ccc(N2CCNCC2)c(Cl)c1 | inconclusive: 7.31 µM [cytotoxic, partial curve] | –
10 | COc1ccc(NC(c2ccccc2)P(=O)(Oc2ccccc2)Oc2ccccc2)cc1 (centres undefined) | – | inactive: 27.8%
11 | O=C(Cc1ccccc1)N1CCN(Cc2c[nH]c3ccccc23)CC1 | inconclusive: 18.4 µM [cytotoxic, partial curve, poor fit] | –
12 | C[C@H](CO)N1C[C@H](C)[C@H](CN(C)C(=O)Oc2ccccc2)OCc2cnnn2CCCC1=O | inconclusive: 1.84 µM [rising, single point] | –
13 | O=c1c2ccccc2nc(/C=C/c2ccco2)n1-c1ccccc1O | inconclusive: 11.6 µM [cytotoxic, partial curve, poor fit] | –
14 | Cc1ccsc1C(=O)C1CCCN(Cc2sc(N(C)C)nc2Cl)C1 (centres undefined) | inconclusive: 29.1 µM [rising, single point] | –
15 | Clc1cc(Cl)cc(NC2=NCCS2)c1 | – | inactive: -10.1%
16 | O=P(O)(O)Cc1ccccc1OP(=O)(c1ccccc1)c1ccccc1 | active: 23.1 µM | –
17 | C=CCn1c(O)c(N=Nc2c(C)n(C)n(-c3ccccc3)c2=O)c(=O)[nH]c1=S | active: 3.26 µM | –
18 | COc1ccc(C(C)=O)cc1Cc1c(O)[nH]c(=S)[nH]c1=O | inconclusive: 29.1 µM [rising, partial curve, poor fit] | –
19 | O=C1CN(O)C(c2ccccc2)=c2cc(Br)ccc2=N1 | inconclusive: 29.1 µM [rising, single point] | –

A draw from above in order of number of heavy atoms, largest number first.
Row | SMILES | Potency | activity change, negative = cytotoxicity
12 | C[C@H](CO)N1C[C@H](C)[C@H](CN(C)C(=O)Oc2ccccc2)OCc2cnnn2CCCC1=O | inconclusive: 1.84 µM [rising, single point] | –
8 | O=C(/C=C/c1ccccc1)c1c(O)n(CCc2ccccc2)c(=O)[nH]c1=O | active: 6.51 µM | –
16 | O=P(O)(O)Cc1ccccc1OP(=O)(c1ccccc1)c1ccccc1 | active: 23.1 µM | –
19 | O=C1CN(O)C(c2ccccc2)=c2cc(Br)ccc2=N1 | inconclusive: 29.1 µM [rising, single point] | –

Reference: PubChem BioAssay AID1347076 (National Center for Advancing Translational Sciences (NCATS), 2019)
